{
  "sequences": {"note": "By UniProt entry, the sequences of proteins in these tests, tags left out. Where a name states a change or a piece, a line headed by the entry shows the natural chain unless it says otherwise.", "UniProt P16460": "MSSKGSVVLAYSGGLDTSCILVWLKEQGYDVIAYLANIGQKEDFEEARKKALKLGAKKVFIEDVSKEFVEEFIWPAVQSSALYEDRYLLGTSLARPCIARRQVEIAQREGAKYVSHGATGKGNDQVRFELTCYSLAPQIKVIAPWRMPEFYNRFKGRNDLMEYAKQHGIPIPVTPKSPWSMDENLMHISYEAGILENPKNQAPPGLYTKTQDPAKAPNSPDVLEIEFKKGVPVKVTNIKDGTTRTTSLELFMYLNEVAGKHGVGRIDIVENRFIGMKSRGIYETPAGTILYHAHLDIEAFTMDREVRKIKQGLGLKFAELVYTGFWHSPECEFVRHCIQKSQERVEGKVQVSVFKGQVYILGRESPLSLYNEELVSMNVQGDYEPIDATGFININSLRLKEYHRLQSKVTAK", "UniProt P08032": "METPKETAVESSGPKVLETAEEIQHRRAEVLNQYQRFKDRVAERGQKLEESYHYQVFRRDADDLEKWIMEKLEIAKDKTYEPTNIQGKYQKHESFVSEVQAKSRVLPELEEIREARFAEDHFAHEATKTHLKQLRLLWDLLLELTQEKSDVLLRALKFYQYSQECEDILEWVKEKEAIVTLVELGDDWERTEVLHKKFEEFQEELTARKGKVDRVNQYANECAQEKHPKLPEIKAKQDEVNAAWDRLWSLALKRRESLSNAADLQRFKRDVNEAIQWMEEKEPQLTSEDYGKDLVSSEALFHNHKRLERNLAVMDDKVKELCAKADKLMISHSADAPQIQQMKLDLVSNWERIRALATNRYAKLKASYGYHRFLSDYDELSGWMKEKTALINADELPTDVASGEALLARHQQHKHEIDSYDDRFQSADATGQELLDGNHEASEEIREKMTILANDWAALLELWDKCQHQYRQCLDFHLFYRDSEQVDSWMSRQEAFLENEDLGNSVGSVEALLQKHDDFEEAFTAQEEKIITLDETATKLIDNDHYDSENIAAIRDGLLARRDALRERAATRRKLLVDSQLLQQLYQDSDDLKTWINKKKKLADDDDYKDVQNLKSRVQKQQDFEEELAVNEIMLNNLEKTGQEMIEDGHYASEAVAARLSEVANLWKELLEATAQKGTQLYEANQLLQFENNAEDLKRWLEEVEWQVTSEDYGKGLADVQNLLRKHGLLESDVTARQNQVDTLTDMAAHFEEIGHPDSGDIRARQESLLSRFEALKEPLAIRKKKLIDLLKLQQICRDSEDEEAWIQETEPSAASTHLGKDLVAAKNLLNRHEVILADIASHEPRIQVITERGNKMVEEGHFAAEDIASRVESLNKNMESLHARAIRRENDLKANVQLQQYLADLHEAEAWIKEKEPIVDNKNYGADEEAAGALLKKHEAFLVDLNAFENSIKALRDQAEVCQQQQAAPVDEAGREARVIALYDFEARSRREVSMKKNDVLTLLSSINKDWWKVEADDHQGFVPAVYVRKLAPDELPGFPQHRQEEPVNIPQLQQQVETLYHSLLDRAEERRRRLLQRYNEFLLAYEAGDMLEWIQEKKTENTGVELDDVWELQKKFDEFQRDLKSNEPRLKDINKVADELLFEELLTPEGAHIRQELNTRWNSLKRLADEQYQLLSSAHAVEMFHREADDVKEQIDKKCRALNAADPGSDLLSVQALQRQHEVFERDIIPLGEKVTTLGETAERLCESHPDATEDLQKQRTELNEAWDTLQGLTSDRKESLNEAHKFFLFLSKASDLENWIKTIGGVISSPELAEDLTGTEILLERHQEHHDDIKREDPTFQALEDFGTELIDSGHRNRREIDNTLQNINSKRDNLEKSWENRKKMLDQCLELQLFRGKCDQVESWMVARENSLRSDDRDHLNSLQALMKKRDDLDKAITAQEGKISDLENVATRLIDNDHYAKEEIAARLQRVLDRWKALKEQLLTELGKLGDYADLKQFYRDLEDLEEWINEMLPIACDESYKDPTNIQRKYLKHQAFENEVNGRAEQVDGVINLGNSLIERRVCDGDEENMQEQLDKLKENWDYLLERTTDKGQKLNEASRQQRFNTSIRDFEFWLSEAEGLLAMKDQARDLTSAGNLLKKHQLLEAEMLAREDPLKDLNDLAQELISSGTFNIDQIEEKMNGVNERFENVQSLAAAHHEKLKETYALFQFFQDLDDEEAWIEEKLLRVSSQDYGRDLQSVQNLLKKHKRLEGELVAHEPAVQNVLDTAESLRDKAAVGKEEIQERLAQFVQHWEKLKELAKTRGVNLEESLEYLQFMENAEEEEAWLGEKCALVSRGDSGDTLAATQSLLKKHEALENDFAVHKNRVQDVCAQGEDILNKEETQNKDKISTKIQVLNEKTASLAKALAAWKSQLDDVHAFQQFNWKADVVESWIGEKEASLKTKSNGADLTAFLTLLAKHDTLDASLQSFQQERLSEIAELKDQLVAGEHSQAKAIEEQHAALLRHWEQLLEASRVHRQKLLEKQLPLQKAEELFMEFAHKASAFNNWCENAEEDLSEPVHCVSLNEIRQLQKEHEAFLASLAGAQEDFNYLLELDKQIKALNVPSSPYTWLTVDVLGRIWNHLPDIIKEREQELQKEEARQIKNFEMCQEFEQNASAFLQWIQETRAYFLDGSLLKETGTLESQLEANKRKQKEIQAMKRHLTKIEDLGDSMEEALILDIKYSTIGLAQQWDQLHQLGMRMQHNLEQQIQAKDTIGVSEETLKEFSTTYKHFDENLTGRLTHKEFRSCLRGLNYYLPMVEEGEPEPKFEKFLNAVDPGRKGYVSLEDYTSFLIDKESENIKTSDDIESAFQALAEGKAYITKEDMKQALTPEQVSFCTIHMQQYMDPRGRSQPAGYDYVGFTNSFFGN", "UniProt P27046": "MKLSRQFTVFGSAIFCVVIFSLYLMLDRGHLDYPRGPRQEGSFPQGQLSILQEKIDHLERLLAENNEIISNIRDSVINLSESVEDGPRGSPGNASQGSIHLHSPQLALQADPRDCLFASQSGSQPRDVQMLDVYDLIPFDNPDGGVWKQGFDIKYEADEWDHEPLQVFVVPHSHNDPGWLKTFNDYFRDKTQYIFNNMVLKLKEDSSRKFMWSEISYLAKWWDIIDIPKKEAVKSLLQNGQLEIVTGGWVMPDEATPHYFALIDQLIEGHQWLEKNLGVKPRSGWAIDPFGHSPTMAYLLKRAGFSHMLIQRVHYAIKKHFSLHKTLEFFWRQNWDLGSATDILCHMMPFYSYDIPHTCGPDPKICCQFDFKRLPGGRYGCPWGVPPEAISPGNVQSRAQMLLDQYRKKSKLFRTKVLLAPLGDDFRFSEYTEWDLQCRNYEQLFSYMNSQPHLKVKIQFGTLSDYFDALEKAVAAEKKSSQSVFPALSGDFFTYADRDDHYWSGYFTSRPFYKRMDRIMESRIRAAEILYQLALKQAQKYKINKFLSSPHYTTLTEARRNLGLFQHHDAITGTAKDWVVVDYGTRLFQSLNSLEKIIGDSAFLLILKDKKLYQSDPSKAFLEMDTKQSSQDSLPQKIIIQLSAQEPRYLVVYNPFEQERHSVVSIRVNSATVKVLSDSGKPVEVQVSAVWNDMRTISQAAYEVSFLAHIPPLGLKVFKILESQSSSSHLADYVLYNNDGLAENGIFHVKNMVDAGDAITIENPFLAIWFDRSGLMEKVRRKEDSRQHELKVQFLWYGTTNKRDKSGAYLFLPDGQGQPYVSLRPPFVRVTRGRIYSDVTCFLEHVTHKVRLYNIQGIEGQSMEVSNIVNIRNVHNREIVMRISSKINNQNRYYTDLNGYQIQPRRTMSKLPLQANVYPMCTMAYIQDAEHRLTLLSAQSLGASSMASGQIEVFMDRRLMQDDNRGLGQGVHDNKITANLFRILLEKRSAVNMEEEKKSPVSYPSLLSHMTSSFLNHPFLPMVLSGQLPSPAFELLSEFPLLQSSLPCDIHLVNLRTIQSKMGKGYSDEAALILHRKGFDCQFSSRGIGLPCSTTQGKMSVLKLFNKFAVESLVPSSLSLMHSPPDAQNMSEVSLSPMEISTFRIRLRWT", "UniProt P0DJE0": "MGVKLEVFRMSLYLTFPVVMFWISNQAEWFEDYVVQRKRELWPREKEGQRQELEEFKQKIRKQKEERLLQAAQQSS", "UniProt P26039": "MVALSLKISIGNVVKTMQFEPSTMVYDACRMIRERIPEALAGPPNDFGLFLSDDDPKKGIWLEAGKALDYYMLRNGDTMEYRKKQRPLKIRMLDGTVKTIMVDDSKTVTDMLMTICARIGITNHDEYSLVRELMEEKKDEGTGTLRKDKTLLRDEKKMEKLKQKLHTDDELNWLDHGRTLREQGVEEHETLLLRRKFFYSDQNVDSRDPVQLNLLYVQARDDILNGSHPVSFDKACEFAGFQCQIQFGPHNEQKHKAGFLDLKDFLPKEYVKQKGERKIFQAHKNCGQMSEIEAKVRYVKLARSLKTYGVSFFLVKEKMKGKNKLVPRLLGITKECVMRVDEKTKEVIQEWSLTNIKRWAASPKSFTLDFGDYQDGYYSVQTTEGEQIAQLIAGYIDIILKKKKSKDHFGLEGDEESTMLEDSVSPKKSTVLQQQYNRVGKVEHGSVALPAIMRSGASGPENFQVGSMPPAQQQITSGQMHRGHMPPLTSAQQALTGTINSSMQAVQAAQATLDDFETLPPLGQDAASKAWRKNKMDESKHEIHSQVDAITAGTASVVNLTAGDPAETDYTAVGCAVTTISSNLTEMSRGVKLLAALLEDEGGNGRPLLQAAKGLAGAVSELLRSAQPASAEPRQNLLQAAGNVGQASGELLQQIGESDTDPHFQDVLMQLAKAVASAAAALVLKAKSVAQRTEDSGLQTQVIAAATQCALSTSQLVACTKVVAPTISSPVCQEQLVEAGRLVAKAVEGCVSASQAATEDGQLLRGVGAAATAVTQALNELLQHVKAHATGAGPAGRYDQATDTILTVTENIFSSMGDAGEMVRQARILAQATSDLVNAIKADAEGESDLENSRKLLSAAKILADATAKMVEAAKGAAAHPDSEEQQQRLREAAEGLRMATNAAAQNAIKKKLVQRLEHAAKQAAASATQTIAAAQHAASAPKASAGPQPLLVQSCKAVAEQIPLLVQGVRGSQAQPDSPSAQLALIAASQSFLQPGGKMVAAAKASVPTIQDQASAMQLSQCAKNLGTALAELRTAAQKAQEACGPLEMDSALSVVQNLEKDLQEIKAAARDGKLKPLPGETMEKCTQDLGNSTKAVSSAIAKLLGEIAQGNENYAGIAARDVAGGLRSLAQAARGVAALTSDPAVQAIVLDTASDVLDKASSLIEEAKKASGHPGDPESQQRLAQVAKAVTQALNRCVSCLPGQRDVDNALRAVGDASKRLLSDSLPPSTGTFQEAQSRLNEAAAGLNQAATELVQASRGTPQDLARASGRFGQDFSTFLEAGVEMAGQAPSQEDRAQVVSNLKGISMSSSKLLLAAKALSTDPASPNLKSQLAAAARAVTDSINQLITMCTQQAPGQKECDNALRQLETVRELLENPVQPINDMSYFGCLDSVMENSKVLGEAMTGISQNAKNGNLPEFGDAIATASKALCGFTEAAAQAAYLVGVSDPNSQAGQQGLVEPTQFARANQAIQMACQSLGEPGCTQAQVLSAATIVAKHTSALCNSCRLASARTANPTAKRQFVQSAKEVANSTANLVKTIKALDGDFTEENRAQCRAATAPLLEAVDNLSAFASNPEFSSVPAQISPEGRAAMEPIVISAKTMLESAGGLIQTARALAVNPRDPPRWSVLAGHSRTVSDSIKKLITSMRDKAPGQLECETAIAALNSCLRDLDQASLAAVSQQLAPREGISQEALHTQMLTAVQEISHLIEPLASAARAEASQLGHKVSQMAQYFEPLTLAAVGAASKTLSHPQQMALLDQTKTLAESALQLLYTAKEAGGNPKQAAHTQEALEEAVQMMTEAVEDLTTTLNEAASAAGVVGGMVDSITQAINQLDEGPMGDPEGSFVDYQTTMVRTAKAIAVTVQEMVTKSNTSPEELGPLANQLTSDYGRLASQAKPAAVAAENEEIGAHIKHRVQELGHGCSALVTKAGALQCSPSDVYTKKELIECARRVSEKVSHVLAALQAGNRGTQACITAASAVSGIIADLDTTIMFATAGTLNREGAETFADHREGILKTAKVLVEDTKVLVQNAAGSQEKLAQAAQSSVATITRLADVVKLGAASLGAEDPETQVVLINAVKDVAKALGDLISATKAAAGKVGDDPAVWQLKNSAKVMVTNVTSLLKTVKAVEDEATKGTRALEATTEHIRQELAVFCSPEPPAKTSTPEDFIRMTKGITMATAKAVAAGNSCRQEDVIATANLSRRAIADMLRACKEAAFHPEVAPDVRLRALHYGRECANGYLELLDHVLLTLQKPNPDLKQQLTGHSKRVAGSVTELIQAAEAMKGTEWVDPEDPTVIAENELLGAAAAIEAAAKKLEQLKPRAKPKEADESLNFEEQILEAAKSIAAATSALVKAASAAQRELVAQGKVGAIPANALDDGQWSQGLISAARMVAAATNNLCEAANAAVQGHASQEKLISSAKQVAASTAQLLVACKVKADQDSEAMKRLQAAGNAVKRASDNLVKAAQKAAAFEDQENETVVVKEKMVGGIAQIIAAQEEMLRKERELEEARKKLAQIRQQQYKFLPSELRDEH"},
  "source": "the supplement of paper PMC12819154",
  "about": "“High-throughput peptide-centric local stability assay extends protein–ligand identification to membrane proteins, tissues and bacteria” (Nature Structural & Molecular Biology, 2025)",
  "note": "This is one part of the list. Most entries show no effect beyond the scatter of the controls.",
  "data": [
    {"compound": "CN[C@@H]1C[C@H]2O[C@@](C)([C@@H]1OC)n1c3ccccc3c3c4c(c5c6ccccc6n2c5c31)C(=O)NC4 [staurosporine]", "test": "log2 fold change of pooled soluble protein (PISA), ligand vs vehicle (log2 ratio); higher = more thermally stabilized", "conditions": "ligand concentration: 20 uM; assay format: PISA pool 52.9/55.5/58.6 C", "values": [
      {"target": "UniProt P26262", "log2 fold change of pooled soluble protein": -0.0198},
      {"target": "UniProt P18242", "log2 fold change of pooled soluble protein": -0.00323},
      {"target": "UniProt P14733", "log2 fold change of pooled soluble protein": -0.0468},
      {"target": "UniProt P17563", "log2 fold change of pooled soluble protein": 0.0997},
      {"target": "UniProt P16546", "log2 fold change of pooled soluble protein": -0.0236},
      {"target": "UniProt P14901", "log2 fold change of pooled soluble protein": 0.105},
      {"target": "UniProt P06537", "log2 fold change of pooled soluble protein": 0.0166},
      {"target": "UniProt P16460", "log2 fold change of pooled soluble protein": 0.0323},
      {"target": "UniProt P07356", "log2 fold change of pooled soluble protein": -0.0388},
      {"target": "UniProt P18572", "log2 fold change of pooled soluble protein": 0.034},
      {"target": "UniProt P08032", "log2 fold change of pooled soluble protein": 0.0337},
      {"target": "UniProt P21126", "log2 fold change of pooled soluble protein": 0.194},
      {"target": "UniProt P24668", "log2 fold change of pooled soluble protein": 0.102},
      {"target": "UniProt P12710", "log2 fold change of pooled soluble protein": -0.155},
      {"target": "UniProt P20065", "log2 fold change of pooled soluble protein": 0.0671},
      {"target": "UniProt P27046", "log2 fold change of pooled soluble protein": 0.028},
      {"target": "UniProt P14148", "log2 fold change of pooled soluble protein": -0.0537},
      {"target": "UniProt P11031", "log2 fold change of pooled soluble protein": -0.0575},
      {"target": "UniProt P11588", "log2 fold change of pooled soluble protein": -0.113},
      {"target": "UniProt P23506", "log2 fold change of pooled soluble protein": 0.0799},
      {"target": "UniProt P12790", "log2 fold change of pooled soluble protein": 0.0433},
      {"target": "UniProt P24063", "log2 fold change of pooled soluble protein": 0.0304},
      {"target": "UniProt P0DJE0", "log2 fold change of pooled soluble protein": -0.0568},
      {"target": "UniProt P16675", "log2 fold change of pooled soluble protein": -0.471},
      {"target": "UniProt P03921", "log2 fold change of pooled soluble protein": -0.0634},
      {"target": "UniProt P15864", "log2 fold change of pooled soluble protein": -0.143},
      {"target": "UniProt P11609", "log2 fold change of pooled soluble protein": 0.103},
      {"target": "UniProt P23249", "log2 fold change of pooled soluble protein": -0.0364},
      {"target": "UniProt P08607", "log2 fold change of pooled soluble protein": 0.0501},
      {"target": "UniProt P11352", "log2 fold change of pooled soluble protein": 0.0885},
      {"target": "UniProt P10493", "log2 fold change of pooled soluble protein": -0.109},
      {"target": "UniProt P26039", "log2 fold change of pooled soluble protein": -0.0218},
      {"target": "UniProt P28076", "log2 fold change of pooled soluble protein": -0.0224},
      {"target": "UniProt P08101", "log2 fold change of pooled soluble protein": 0.0464},
      {"target": "UniProt P09925", "log2 fold change of pooled soluble protein": -0.171},
      {"target": "UniProt P09055", "log2 fold change of pooled soluble protein": -0.0367},
      {"target": "UniProt P20918", "log2 fold change of pooled soluble protein": 0.00616}
    ]}
  ]
}
